Reference: publication PMC9026565
These are yes or no findings as the source states them, for the method shown. Some results given as binding are weak or reduced against the parent protein; the word gives no strength.

Protein sequences, listed by entry. Tags and fused reporters are not part of them.
UniProt P55087: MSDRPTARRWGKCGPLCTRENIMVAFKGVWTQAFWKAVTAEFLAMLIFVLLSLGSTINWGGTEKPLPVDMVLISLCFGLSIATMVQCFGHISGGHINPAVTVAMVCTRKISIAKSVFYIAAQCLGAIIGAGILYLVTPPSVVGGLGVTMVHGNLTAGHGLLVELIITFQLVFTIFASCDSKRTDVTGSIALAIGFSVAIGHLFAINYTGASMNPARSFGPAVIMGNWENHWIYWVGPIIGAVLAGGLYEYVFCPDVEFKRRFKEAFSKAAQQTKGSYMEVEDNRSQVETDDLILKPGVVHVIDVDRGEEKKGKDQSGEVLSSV

How the values were obtained:
[1] = target: human aquaporin 4 (human) (UniProt P55087); assay: SDS-PAGE (SDS-resistant oligomer ladder); NuPAGE 4-12% Bis-Tris gel of the main SEC elution peak of purified AQP4; samples not boiled; both purified
[2] = target: human aquaporin 4 (human) (UniProt P55087); assay: SEC; Superdex 200 Increase 10/300 GL, flow 0.4 mL/min, SEC-buffer (20 mM Tris pH 8.0, 300 mM NaCl, 1% OG), 4°C; 500 μL of 10 mg/mL IMAC sample; tetramer assigned from the elution volume; both purified

binding [1]: binds
binding [2]: binds
Substance: human aquaporin 4 (from UniProt P55087 1-323)
